In paper PMC11423142, “Clec7a Worsens Long‐Term Outcomes after Ischemic Stroke by Aggravating Microglia‐Mediated Synapse Elimination” (Advanced Science, 2024) one finds binding data, which are given here for 1 molecule.

The test concerns the target T1, myeloid differentiation protein 2 (MD2), mouse, endogenous (mouse (endogenous in mouse brain)) (UniProt Q9JHF9).
T1 sequence: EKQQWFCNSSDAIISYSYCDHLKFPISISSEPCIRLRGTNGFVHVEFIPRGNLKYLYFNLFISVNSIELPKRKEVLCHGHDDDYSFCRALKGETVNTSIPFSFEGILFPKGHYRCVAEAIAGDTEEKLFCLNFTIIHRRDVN
The test is described as follows: co-IP; endogenous proteins from mouse brain after ischemic stroke, 400-500 µg protein; biotinylated anti-MD2 or anti-Clec7a antibody, NeutrAvidin agarose beads, overnight 4 °C; immunoblot.

No constants are given. Whether binding was seen depends on the method and setting. Binding seen in cells or lysates may run through a third protein. Some binding calls cover weakened binding; strength is not graded here.

B1: C-type lectin domain family 7 member A (Clec7a), mouse, endogenous (receptor, UniProt Q6QLQ4 1-244)
chain: MKYHSHIENLDEDGYTQLDFSTQDIHKRPRGSEKGSQAPSSPWRPIAVGLGILCFVVVVVAAVLGALGEYGHNSGRNPEEKDNFLSRNKENHKPTESSLDEKVAPSKASQTTGGFSQPCLPNWIMHGKSCYLFSFSGNSWYGSKRHCSQLGAHLLKIDNSKEFEFIESQTSSHRINAFWIGLSRNQSEGPWFWEDGSAFFPNSFQVRNTAPQESLLHNCVWIHGSEVYNQICNTSSYSICEKEL
Regarding B1, the binding result is reported as “binds”.
